{"source": "patent US8546426B2", "about": "“N-aminotetrahydroisoquinolines as anti-cancer agents” (Florida A&M University Board of Trustees, priority 2011, dated 2013)", "test_system": "MDA-MB-231 estrogen receptor-negative breast cancer cell line", "test": "[…]-GLO luminescent cell viability assay, MDA-MB-231", "format": "cell-based", "conditions": "Homo sapiens, MDA-MB-231 cells, 5000 cells/well, 72 h at 37° C.", "method": "All the compounds are tested in three cell lines. Different concentration of compounds, ranging from about 0.01 nM to about 100,000 nM were delivered to 5×10^3 cells per well, which were then incubated for three days at 37° C., followed by CTG assay.\nIn this assay, the number of viable cells in culture is determined based on the quantification of ATP present, which signals the presence of metabolically active cells. Damaged cells are not detected as the ATP leaked from these cells is quickly consumed by ATPases that are also released upon damage). The amount of ATP is determined using a system based on luciferase and D-luciferin resulting in light generation.\nThe cell lines were plated in 13, 96 well plates at a density of 5000 cells/well in total volumes of 50 μL in phenol-red free medium and incubated for overnight.\n25 μL of 40 nM estradiol should be added to all appropriate wells on the plate. […] 25 μL of stocks (containing the compounds to be tested, DMSO and phenol-red free medium) were added to cells and medium already on plate. 50 μL of medium were added to media wells, and 50 μL of mix (contain 32 mL DMSO+768 mL phenol-red free medium) to all vehicle control wells.\nLuminescence results were read on TriLux Luminometer. […] Data were expressed as percentage of untreated control (i.e. treatment value-blank/vehicle value blank), mean±SE for three replications."}
{"smiles": "CC/C(=C(\\c1ccccc1)c1ccc(OCCN(C)C)cc1)c1ccccc1", "note": "[Tamoxifen, reference compound]", "values": [{"measurement": "IC50", "result": 5.98, "unit": "µg/mL"}]}
